In patent US20210369680A1, “METHODS OF TREATING DISEASES AND DISORDERS RESULTING FROM BETA CORONAVIRUS INFECTION” (T3D Therapeutics, Inc., priority 2020, published 2021):
The name of at least one read-out is uncertain.

Test: Rat brain penetrance pharmacokinetics after oral dosing
Assay type: in vivo, male Sprague-Dawley rats
Details: oral 3 mg/kg
Source text: Determination of Brain to Plasma Ratios for Compound of Example 11
For compounds of the present disclosure to be effective in treating cognitive impairment, it must have an ability to cross the BBB and penetrate the brain. […] The plasma exposure as measured by AUClast was 9569±1190 hr*ng/mL.

Compound: CCc1oc(-c2ccc(OC)cc2)nc1CCOc1ccc2c(c1)CC[C@H]2CC(=O)[O-].[Na+] [Example 11, Sodium (S)-2-(5-(2-(5-ethyl-2-(4-methoxyphenyl)oxazol-4-yl)ethoxy)-2,3-dihydro-1H-inden-1-yl)acetate]
- time at which plasma Cmax was reached: 5 h
